Data: patent US20090099195A1 (ASTRAZENECA AB, priority 2007, published 2009)
Some results were stated once for a whole list of compounds, not compound by compound.

target: T1, P2X3 receptors (UniProt P56373); assay: FLIPR antagonist assay, receptor or clone not stated (less preferred compounds); conditions: compounds also tested
T1 sequence (P56373 1-397): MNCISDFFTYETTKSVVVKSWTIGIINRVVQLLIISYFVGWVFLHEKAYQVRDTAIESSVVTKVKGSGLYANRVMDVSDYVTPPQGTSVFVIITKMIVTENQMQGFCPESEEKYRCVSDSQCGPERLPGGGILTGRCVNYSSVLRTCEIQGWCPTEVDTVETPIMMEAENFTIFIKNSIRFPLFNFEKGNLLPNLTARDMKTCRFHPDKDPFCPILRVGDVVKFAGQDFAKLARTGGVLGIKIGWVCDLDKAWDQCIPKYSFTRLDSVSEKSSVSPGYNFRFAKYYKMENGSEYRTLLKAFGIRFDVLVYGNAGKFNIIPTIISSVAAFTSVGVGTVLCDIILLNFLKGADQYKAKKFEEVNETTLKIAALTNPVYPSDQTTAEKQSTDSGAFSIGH

IC50, > 3.3 µM:
COc1cccc(CNc2nc(N3CCN(C(C)=O)CC3)nc3c2CN(C(C)C)C3=O)c1 [2-(4-acetylpiperazin-1-yl)-4-[(3-methoxybenzyl)amino]-6-(1-methylethyl)-5,6-dihydro-7H-pyrrolo[3,4-d]pyrimidin-7-one]
CCN(Cc1ccccc1)C(=O)[C@H]1CCCN1c1nc(N2CCN(C(C)=O)CC2)nc2c1CN(C(C)C)C2=O [1-[2-(4-acetylpiperazin-1-yl)-6-(1-methylethyl)-7-oxo-6,7-dihydro-5H-pyrrolo[3,4-d]pyrimidin-4-yl]-N-benzyl-N-ethyl-D-prolinamide]
CC(=O)N1CCN(c2nc3c(c(N4CCC[C@@H]4CN4CCCC4)n2)CN(C(C)C)C3=O)CC1 [2-(4-acetylpiperazin-1-yl)-6-(1-methylethyl)-4-[(2R)-2-(pyrrolidin-1-ylmethyl)pyrrolidin-1-yl]-5,6-dihydro-7H-pyrrolo[3,4-d]pyrimidin-7-one]
CC(C)N1Cc2c(NCCc3ccc(C(C)(C)C)cc3)nc(NCCN(C)C)nc2C1=O [4-{[2-(4-tert-butylphenyl)ethyl]amino}-2-{[2-(dimethylamino)ethyl]amino}-6-(1-methylethyl)-5,6-dihydro-7H-pyrrolo[3,4-d]pyrimidin-7-one]
COCC(Nc1nc(N2CCN(C(C)=O)CC2)nc2c1CN(C(C)C)C2=O)c1ccc(F)cc1 (stereo not shown) [2-(4-acetylpiperazin-1-yl)-4-{[1-(4-fluorophenyl)-2-methoxyethyl]amino}-6-(1-methylethyl)-5,6-dihydro-7H-pyrrolo[3,4-d]pyrimidin-7-one]
COc1ccc(Nc2nc(N3CCOCC3)nc3c2CN(C(C)C)C3=O)cc1F [4-[(3-fluoro-4-methoxyphenyl)amino]-6-(1-methylethyl)-2-morpholin-4-yl-5,6-dihydro-7H-pyrrolo[3,4-d]pyrimidin-7-one]
CC(C)N1Cc2c(Nc3ccccc3OCc3ccccc3)nc(N3CCOCC3)nc2C1=O [4-{[2-(benzyloxy)phenyl]amino}-6-(1-methylethyl)-2-morpholin-4-yl-5,6-dihydro-7H-pyrrolo[3,4-d]pyrimidin-7-one]
CC(C)N1Cc2c(NCc3cnc4ccccc4c3)nc(NCCO)nc2C1=O [2-[(2-hydroxyethyl)amino]-6-(1-methylethyl)-4-[(quinolin-3-ylmethyl)amino]-5,6-dihydro-7H-pyrrolo[3,4-d]pyrimidin-7-one]
CC(=O)N1CCN(c2nc(NC(C)c3ccc(F)cc3)c3c(n2)C(=O)N(C(C)C)C3)CC1 (stereo not shown) [2-(4-acetylpiperazin-1-yl)-4-{[1-(4-fluorophenyl)ethyl]amino}-6-(1-methylethyl)-5,6-dihydro-7H-pyrrolo[3,4-d]pyrimidin-7-one]
CC(C)CC(C)N1Cc2c(Nc3ccc(Cl)cc3)nc(N3CCOCC3)nc2C1=O (stereo not shown) [4-[(4-chlorophenyl)amino]-6-(1,3-dimethylbutyl)-2-morpholin-4-yl-5,6-dihydro-7H-pyrrolo[3,4-d]pyrimidin-7-one]
CC(=O)N1CCN(c2nc(NCc3ccn(C)n3)c3c(n2)C(=O)N(C(C)C)C3)CC1 [2-(4-acetylpiperazin-1-yl)-6-(1-methylethyl)-4-{[(1-methyl-1H-pyrazol-3-yl)methyl]amino}-5,6-dihydro-7H-pyrrolo[3,4-d]pyrimidin-7-one]
C#CC1(N2Cc3c(nc(N4CCCC4)nc3N(CC)CC)C2=O)CCCCC1 [4-(diethylamino)-6-(1-ethynylcyclohexyl)-2-pyrrolidin-1-yl-5,6-dihydro-7H-pyrrolo[3,4-d]pyrimidin-7-one]
CCOC(=O)C1CCN(c2nc(Nc3ccc(Cl)cc3)c3c(n2)C(=O)N(C(C)C)C3)CC1 [ethyl 1-{4-[(4-chlorophenyl)amino]-6-(1-methylethyl)-7-oxo-6,7-dihydro-5H-pyrrolo[3,4-d]pyrimidin-2-yl}piperidine-4-carboxylate]
CC(=O)N1CCN(c2nc3c(c(N(C)CC4Cc5ccccc5O4)n2)CN(C(C)C)C3=O)CC1 (stereo not shown) [2-(4-acetylpiperazin-1-yl)-4-[(2,3-dihydro-1-benzofuran-2-ylmethyl)(methyl)amino]-6-(1-methylethyl)-5,6-dihydro-7H-pyrrolo[3,4-d]pyrimidin-7-one]
CC(C)N1Cc2c(nc(N3CCOCC3)nc2N2CC[C@@H](N(C)C)C2)C1=O [4-[(3R)-3-(dimethylamino)pyrrolidin-1-yl]-6-(1-methylethyl)-2-morpholin-4-yl-5,6-dihydro-7H-pyrrolo[3,4-d]pyrimidin-7-one]
CC(=O)N1CCN(c2nc(NCc3cn(C)cn3)c3c(n2)C(=O)N(C(C)C)C3)CC1 [2-(4-acetylpiperazin-1-yl)-6-(1-methylethyl)-4-{[(1-methyl-1H-imidazol-4-yl)methyl]amino}-5,6-dihydro-7H-pyrrolo[3,4-d]pyrimidin-7-one]
CC(C)N1Cc2c(NCCc3c[nH]cn3)nc(N3CCOCC3)nc2C1=O [4-{[2-(1H-imidazol-4-yl)ethyl]amino}-6-(1-methylethyl)-2-morpholin-4-yl-5,6-dihydro-7H-pyrrolo[3,4-d]pyrimidin-7-one]
CC(=O)N1CCN(c2nc(NCc3cnn(C(C)C)c3)c3c(n2)C(=O)N(C(C)C)C3)CC1 [2-(4-acetylpiperazin-1-yl)-6-(1-methylethyl)-4-({[1-(1-methylethyl)-1H-pyrazol-4-yl]methyl}amino)-5,6-dihydro-7H-pyrrolo[3,4-d]pyrimidin-7-one]
CC(=O)N1CCN(c2nc(NC3(c4ccc(F)cc4)CC3)c3c(n2)C(=O)N(C(C)C)C3)CC1 [2-(4-acetylpiperazin-1-yl)-4-{[1-(4-fluorophenyl)cyclopropyl]amino}-6-(1-methylethyl)-5,6-dihydro-7H-pyrrolo[3,4-d]pyrimidin-7-one]
CC(C)N1Cc2c(NCc3cnc4ccccc4c3)nc(N3CCN(CC(=O)N(C)C)CC3)nc2C1=O [N,N-dimethyl-2-(4-{6-(1-methylethyl)-7-oxo-4-[(quinolin-3-ylmethyl)amino]-6,7-dihydro-5H-pyrrolo[3,4-d]pyrimidin-2-yl}piperazin-1-yl)acetamide]
CC(C)N1Cc2c(NC3CCCCC3)nc(N3CCOCC3)nc2C1=O [4-(cyclohexylamino)-6-(1-methylethyl)-2-morpholin-4-yl-5,6-dihydro-7H-pyrrolo[3,4-d]pyrimidin-7-one]
CC(C)N1Cc2c(nc(N3CCOCC3)nc2N2CCC(c3ccccc3)CC2)C1=O [6-(1-methylethyl)-2-morpholin-4-yl-4-(4-phenylpiperidin-1-yl)-5,6-dihydro-7H-pyrrolo[3,4-d]pyrimidin-7-one]
CNC(=O)C1CCN(c2nc(NCc3cnc4ccccc4c3)c3c(n2)C(=O)N(C(C)C)C3)CC1 [N-methyl-1-{6-(1-methylethyl)-7-oxo-4-[(quinolin-3-ylmethyl)amino]-6,7-dihydro-5H-pyrrolo[3,4-d]pyrimidin-2-yl}piperidine-4-carboxamide]
CCN1CCN(c2nc(N3CCOCC3)nc3c2CN(C(C)C)C3=O)CC1 [4-(4-ethylpiperazin-1-yl)-6-(1-methylethyl)-2-morpholin-4-yl-5,6-dihydro-7H-pyrrolo[3,4-d]pyrimidin-7-one]
CC(C)N1Cc2c(Nc3ccc(-c4ccccc4)cc3)nc(N3CCOCC3)nc2C1=O [4-(biphenyl-4-ylamino)-6-(1-methylethyl)-2-morpholin-4-yl-5,6-dihydro-7H-pyrrolo[3,4-d]pyrimidin-7-one]
